These are raw signals, not scaled to a control.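 The top concentration was set near the MIC for antimicrobials, at 500 µM for most other compounds, and up to 1 mM for known inducer-like compounds. Deletion strains started from a tenfold smaller inoculum, and wells growing below 10% of the overall median were treated as non-growing.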
System: Escherichia coli BW25113
Assay: growth (OD600 area under curve, 8 h) (OD600 x h); higher = more growth
Description: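 E. coli BW25113 reporter strains (wild type, ΔmarA, ΔsoxS, Δrob, each carrying one of 8 lux reporter plasmids) were grown in 40 µl LB in 384-well plates at 37°C, 800 rpm, with each compound at 4 two-fold concentrations, in biological duplicates. Growth is the baseline-corrected OD600 area under the curve over 8 h (0-8 h WT, 1-9 h deletion strains).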

Nc1ccc(C(=O)O)cc1 [4-Aminobenzoic acid]
growth
Details | reporter plasmid: EVC | reporter plasmid: acrABp | reporter plasmid: marRABp | reporter plasmid: micFp | reporter plasmid: ompFp | reporter plasmid: robp | reporter plasmid: soxSp | reporter plasmid: tolCp
8.6 µg/ml, genetic background: wild type | 2.23 | 3.05 | 3 | 2.86 | 2.79 | 2.93 | 2.6 | 2.59
8.6 µg/ml, genetic background: ΔmarA | 3.01 | 3.78 | 3.04 | 2.74 | 3.24 | 3.53 | 2.42 | 2.59
8.6 µg/ml, genetic background: Δrob | 2.32 | 2.99 | 2.95 | 2.69 | 2.37 | 2.46 | 2.39 | 2.56
8.6 µg/ml, genetic background: ΔsoxS | 2.54 | 2.63 | 3.05 | 2.12 | 2.52 | 3.06 | 2.72 | 2.5365
17.1 µg/ml, genetic background: wild type | 2.18 | 2.8 | 2.85 | 2.82 | 2.67 | 2.82 | 2.48 | 2.48
17.1 µg/ml, genetic background: ΔmarA | 2.66 | 3.68 | 3.01 | 2.53 | 3.04 | 3 | 2.14 | 2.49
17.1 µg/ml, genetic background: Δrob | 2.5 | 2.82 | 2.83 | 2.72 | 2.15 | 2.35 | 2.28 | 2.56
17.1 µg/ml, genetic background: ΔsoxS | 2.56 | 2.65 | 3.03 | 2.02 | 2.37 | 2.8 | 2.56 | 2.66
34.3 µg/ml, genetic background: wild type | 1.83 | 3.29 | 3.26 | 2.64 | 3.02 | 3.13 | 2.38 | 2.46
34.3 µg/ml, genetic background: ΔmarA | 3.47 | 4.52 | 4.16 | 2.72 | 3.612 | 4.32 | 2.44 | 2.92
34.3 µg/ml, genetic background: Δrob | 2.23 | 3.29 | 3.36 | 2.6 | 2.87 | 2.76 | 2.04 | 2.39
34.3 µg/ml, genetic background: ΔsoxS | 2.5 | 2.94 | 3.25 | 1.9 | 2.5 | 3.13 | 2.73 | 2.35
68.6 µg/ml, genetic background: wild type | 1.79 | 2.89 | 2.94 | 2.38 | 2.425 | 2.62 | 2.159 | 2.319
68.6 µg/ml, genetic background: ΔmarA | 3.02 | 3.81 | 3.2 | 2.553 | 2.92 | 3.73 | 2.06 | 2.5
68.6 µg/ml, genetic background: Δrob | 2.41 | 2.8 | 2.97 | 2.26 | 2.08 | 2.32 | 1.85 | 2.24
68.6 µg/ml, genetic background: ΔsoxS | 2.38 | 2.52 | 2.95 | 1.85 | 2.13 | 2.71 | 2.61 | 2.37

CC(=O)Oc1ccccc1C(=O)O [Acetylsalicylic acid]
growth
Details | reporter plasmid: EVC | reporter plasmid: acrABp | reporter plasmid: marRABp | reporter plasmid: micFp | reporter plasmid: ompFp | reporter plasmid: robp | reporter plasmid: soxSp | reporter plasmid: tolCp
22.5 µg/ml, genetic background: wild type | 2.59 | 3.05 | 3.17 | 2.78 | 2.66 | 3.019 | 2.55 | 2.757
22.5 µg/ml, genetic background: ΔmarA | 2.84 | 3.98 | 3.26 | 3.04 | 3.11 | 3.39 | 2.44 | 2.65
22.5 µg/ml, genetic background: Δrob | 2.76 | 2.93 | 3.06 | 2.63 | 2.53 | 2.65 | 2.33 | 2.6243
22.5 µg/ml, genetic background: ΔsoxS | 2.89 | 3 | 3.04 | 2.49 | 3.15 | 3.11 | 2.87 | 2.8
45 µg/ml, genetic background: wild type | 2.55 | 3.05 | 3.14 | 2.78 | 2.68 | 2.98 | 2.59 | 2.77
45 µg/ml, genetic background: ΔmarA | 3.01 | 4.2 | 3.55 | 2.9 | 3.47 | 3.75 | 2.37 | 2.68
45 µg/ml, genetic background: Δrob | 2.81 | 2.61 | 3.05 | 2.778 | 2.63 | 2.61 | 2.38 | 2.58
45 µg/ml, genetic background: ΔsoxS | 2.802 | 2.9 | 3.11 | 2.61 | 3.11 | 3.03 | 2.8 | 2.91
90.1 µg/ml, genetic background: wild type | 2.77 | 3.27 | 3.22 | 2.66 | 2.88 | 3.16 | 2.47 | 2.7
90.1 µg/ml, genetic background: ΔmarA | 3.17 | 4.47 | 4.1 | 3.17 | 3.79 | 4.12 | 2.73 | 3.05
90.1 µg/ml, genetic background: Δrob | 2.97 | 3.27 | 3.56 | 2.73 | 3.05 | 2.82 | 2.36 | 2.55
90.1 µg/ml, genetic background: ΔsoxS | 2.981 | 3.2 | 3.31 | 2.67 | 3.42 | 3.65 | 3.07 | 2.84
180.2 µg/ml, genetic background: wild type | 2.42 | 3.06 | 2.96 | 2.46 | 2.51 | 2.85 | 2.31 | 2.57
180.2 µg/ml, genetic background: ΔmarA | 3.02 | 3.93 | 3.56 | 2.71 | 3.27 | 3.97 | 2.39 | 2.69
180.2 µg/ml, genetic background: Δrob | 2.56 | 2.82 | 3.1 | 2.38 | 2.58 | 2.4 | 2 | 2.5
180.2 µg/ml, genetic background: ΔsoxS | 2.42 | 2.55 | 2.9 | 1.9 | 2.54 | 3.07 | 2.51 | 2.36

From the supplement of paper PMC12282887
